Some results were stated once for a whole list of compounds, not compound by compound. At least one compound was matched to its structure with a doubt left.
System: mice (Swiss, female)
Assay: Mouse tremor bioassay (Example 5)
Type: in vivo
Conditions: ip; epoxy-janthitrem I 14 mg/kg, lolitrem B 2 mg/kg
Protocol: Epoxy-janthitrem I, lolitrem B, and the related indole-diterpene, paxilline were administered by intraperitoneal injection as DMSO/water solutions (9:1, 50 μL) into mice (Swiss, female, weight 25+3 g). Control mice were injected with the solvent alone. Dose rates which induce an acceptable maximum tremor response are well established for lolitrem B (2 mg/kg; Gallagher and Hawkes, 1986) and paxilline (6 mg/kg; Miles, et al., 1992).
Groups of four mice were used for each treatment group. All animal manipulations were approved by the
AgResearch Ruakura (Hamilton) Animal Ethics Committee established under the Animal Protection (code of ethical conduct) Regulations Act, 1987 (New Zealand). Tremor score was rated 1-5 on the basis of a visual rating scale using well established protocols (Gallagher and Hawkes, 1985; Gallagher and Hawkes, 1986). Tremors were measured regularly until the mice had completely recovered.

CC(=O)O[C@@H]1C(C(C)(C)O)OC2CC[C@]3(C)[C@@]4(C)c5[nH]c6cc7c(cc6c5CC4CC[C@@]3(O)C23O[C@@H]13)CC1C7=CC(C)(C)OC1(C)C (stereo partly shown) [epoxy-janthitrem I]
duration of tremors: over 2 days | time of tremor peak: 7-8 hours post-dosing

CC(C)=C[C@H]1O[C@H]2[C@H]3O[C@@]34[C@H](CC[C@@]3(C)[C@@]4(O)CC[C@H]4Cc5c([nH]c6ccc7c(c56)C[C@@H]5[C@@H](C7=O)C(C)(C)OC5(C)C)[C@@]43C)O[C@@H]2C(C)(C)O1 [lolitrem B]
duration of tremors: over 2 days | time of tremor peak: 7-8 hours post-dosing

Reference: US20230145729A1, “INDOLE DITERPENE BIOSYNTHESIS” (priority 2020, published 2023)
